We go through five substances from US10610608B2 (Rochester Institute of Technology, priority 2013, dated 2020).

The data set can be described thus: general procedure: solution-phase peptide synthesis; TBTU/HOBt/DIPA. Particulars: conjugation step.

“c(RGDyK)-SMCC-DLys(Cy5.5)-Lys(Gd-DOTA)-NH2” displayed a conjugation yield of 36.7%. c(RGDyK)-Su-Lys(Gd)—NH2 showed a conjugation yield of 12.4%. Consider c(RGDyK)-SMCC-Lys(Gd-DOTA)-NH2, for which the conjugation yield was 34.9.0%.

The substance c(RGDyK)-Su-Lys(Cy5.5)-Lys(Gd-DOTA)-NH2 yielded a conjugation yield of 45%. Turning to “c(RGDyK)-SMCC-DLys(Gd-DOTA)-Lys(Gd-DOTA)-NH2”, the conjugation yield was determined as 38.1%.
